Test results published in EP2287285A2 (UAB RESEARCH FOUNDATION, dated 2011).
Results are given in words; binding and its absence hold for the method and conditions named. Binding calls can cover weak binding; strength is not graded here.

Protein sequences, listed by entry. Tags and fused reporters are not part of them. Lines headed by an entry give the natural chain unless they say otherwise; changes in a name come on top.
UniProt Q29615: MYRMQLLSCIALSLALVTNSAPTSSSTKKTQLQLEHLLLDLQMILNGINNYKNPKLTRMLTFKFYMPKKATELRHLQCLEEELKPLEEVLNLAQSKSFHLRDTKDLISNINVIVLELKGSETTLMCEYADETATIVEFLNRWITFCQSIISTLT

Biological target: cynomolgus monkey DR5 on activated cynomolgus lymphocytes (cynomolgus monkey) (UniProt Q29615)
Assay: flow cytometry of activated cynomolgus monkey lymphocytes, 0.5, 1, 5, 10 µg/ml TRA-8, FITC anti-mouse IgG; Kd calculated but not given

B1: TRA-8 monoclonal anti-human DR5 antibody (mouse-mouse hybridoma TRA-8, ATCC PTA-1428) (antibody, mouse IgG1, kappa, V domains shown)
VH: EVMLVESGGGLVKPGGSLKLSCAASGFTFSSYVMSWVRQTPEKRLEWVATISSGGSYTYYPDSVKGRFTISRDNAKNTLYLQMSSLRSEDTAMYYCARRGDSMITTDYWGQGTTLTVSS
VL: DIVMTQSHKFMSTSVGDRVSITCKASQDVGTAVAWYQQKPGQSPKLLIYWASTRHTGVPDRFTGSGSGTDFTLTISNVQSEDLADYFCQQYSSYRTFGGGTKLEIKR
notes: also called anti-DR5 antibody (clone: TRA-8)
For B1, the binding was “binds”.
